Results are given in words; binding and its absence hold for the method and conditions named. In cells and extracts the contact can be indirect. A result given as binding can be weak or reduced; the word gives no strength. Tags and fused reporters may be left off the sequences shown.

Amino acid sequences for entries named in this document (tags omitted). A change or cut given only in a name is not applied to a line headed by its entry.
UniProt P08195: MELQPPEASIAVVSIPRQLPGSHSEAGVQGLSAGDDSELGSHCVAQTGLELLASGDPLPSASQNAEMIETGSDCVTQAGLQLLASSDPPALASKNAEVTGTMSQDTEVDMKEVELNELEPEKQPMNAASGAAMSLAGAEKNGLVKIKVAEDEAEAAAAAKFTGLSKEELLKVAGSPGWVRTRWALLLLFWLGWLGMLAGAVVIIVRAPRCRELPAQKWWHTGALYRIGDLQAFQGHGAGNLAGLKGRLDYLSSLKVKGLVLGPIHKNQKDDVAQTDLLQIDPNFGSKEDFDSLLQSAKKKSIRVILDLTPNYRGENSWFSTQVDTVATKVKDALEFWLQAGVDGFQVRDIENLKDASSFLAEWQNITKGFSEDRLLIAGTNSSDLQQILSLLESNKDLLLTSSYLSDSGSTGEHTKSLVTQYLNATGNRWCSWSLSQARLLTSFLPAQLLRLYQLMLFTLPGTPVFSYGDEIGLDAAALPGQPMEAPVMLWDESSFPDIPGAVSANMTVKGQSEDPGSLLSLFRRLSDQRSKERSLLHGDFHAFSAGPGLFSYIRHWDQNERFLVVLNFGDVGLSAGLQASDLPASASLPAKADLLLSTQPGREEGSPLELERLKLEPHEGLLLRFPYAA

In assay [1] the target is T1, Flag-tagged ARG1^WT (pCDH-Flag) (human) (UniProt P05089).
T1 sequence: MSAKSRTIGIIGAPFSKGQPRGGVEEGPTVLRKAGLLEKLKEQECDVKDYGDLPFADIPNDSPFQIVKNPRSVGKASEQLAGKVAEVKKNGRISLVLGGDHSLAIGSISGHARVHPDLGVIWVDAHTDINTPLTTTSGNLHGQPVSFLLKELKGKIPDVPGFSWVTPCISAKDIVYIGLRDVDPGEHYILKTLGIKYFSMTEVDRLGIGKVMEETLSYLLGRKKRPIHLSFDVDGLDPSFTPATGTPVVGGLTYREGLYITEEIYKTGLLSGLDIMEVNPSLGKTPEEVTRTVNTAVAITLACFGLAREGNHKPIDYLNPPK
Nature of the assay: co-IP; HEK 293T cells co-transfected with Flag-tagged ARG1 and HA-tagged SLC3A2 constructs (whole or truncated).

In assay [2] the target is T2, Flag-tagged ARG1^1-240aa (human) (UniProt P05089).
T2 sequence: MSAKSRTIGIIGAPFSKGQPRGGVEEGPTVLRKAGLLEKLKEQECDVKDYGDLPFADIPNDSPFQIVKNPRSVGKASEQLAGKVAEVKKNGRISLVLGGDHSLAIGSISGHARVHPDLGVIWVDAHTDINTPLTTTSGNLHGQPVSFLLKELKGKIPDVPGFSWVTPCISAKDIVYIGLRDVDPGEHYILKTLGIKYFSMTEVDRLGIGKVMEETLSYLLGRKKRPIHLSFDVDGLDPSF
Described as above.

Assay [3] deals with GST-SLC3A2^1-184aa (human) (UniProt P08195). The assay is described as follows: pull-down; 20 µg purified GST or GST-SLC3A2 protein and lysate of HCT116 cells transfected with ARG1 plasmid, 100 µL GST beads, 2 h at 4 °C; blots with anti-GST and anti-ARG1; only the target purified.

“HA-tagged SLC3A2^1-184aa (from UniProt P08195-1) (domain or fragment)”: the binding result in assay [1] is given as “binds”.
With “HA-tagged SLC3A2^WT (pCDH-HA) (from UniProt P08195-1)”, the binding result in assay [2] is “binds”.

B1: Flag-ARG1 (full-length human arginase-1, pcDNA3.1-Flag) (protein, UniProt P05089 1-322)
chain: MSAKSRTIGIIGAPFSKGQPRGGVEEGPTVLRKAGLLEKLKEQECDVKDYGDLPFADIPNDSPFQIVKNPRSVGKASEQLAGKVAEVKKNGRISLVLGGDHSLAIGSISGHARVHPDLGVIWVDAHTDINTPLTTTSGNLHGQPVSFLLKELKGKIPDVPGFSWVTPCISAKDIVYIGLRDVDPGEHYILKTLGIKYFSMTEVDRLGIGKVMEETLSYLLGRKKRPIHLSFDVDGLDPSFTPATGTPVVGGLTYREGLYITEEIYKTGLLSGLDIMEVNPSLGKTPEEVTRTVNTAVAITLACFGLAREGNHKPIDYLNPPK
As to B1, in assay [3], the binding result is “binds”.

Source of the values: publication PMC12520464.
